The other results are listed elsewhere or left out. These are further read-outs of the screen, such as a control signal, another cell line or another target. No call is given for them. Compounds called inactive in the main read-out are mostly missing here. The note in brackets gives the kind of curve behind each potency; many fits are weak.
Experiment: qHTS Assay for Lipid Storage Modulators in Drosophila S3 Cells;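 for cell number change: cells counted by Cell Tracker Red CMTPX staining in the red channel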
Settings: BODIPY lipid droplet fluorescence, 18-24 h; for cell number change: measured here: cell count max response, cells fed with added oleic acid
Method in brief: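 Drosophila S3 cells got compounds at several concentrations plus oleic acid (400 uM solution). Laser-scanning cytometry with 488 nm excitation read lipid droplets at 500-530 nm and cells at 575-640 nm. Percent activity was relative to 20 uM Triacsin C.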

[1] = measured here: lipid fluorescence (Fed channel) AC50, cells fed with added oleic acid
[2] = measured here: cell number channel AC50, cells fed with added oleic acid

SMILES | cell number change [%] | AC50 [1] | AC50 [2]
Cc1ccccc1Nc1nc(-c2cccnc2)cs1 | 2.49 | 0.58 µM [rising, single point] | 
Cc1cc(C)c(S(=O)(=O)N2CCC(C(=O)NCc3ccco3)CC2)c(C)c1 | 2.8 | 0.82 µM [falling, full curve] | 0.00461 µM [falling, full curve, poor fit]
O=C(CSc1nnc(NC(=O)c2ccc(F)cc2F)s1)NC1CCCC1 | 9.72 |  | 
Cc1c(C(=O)NCCN2CCOC2=O)oc2c(F)cccc12 | 17.2 | 29.1 µM [falling, single point] | 
COc1cc2ccccc2cc1-c1nnc(COc2ccccc2)o1 | -55.1 | 16.4 µM [falling, single point] | 25.9 µM [falling, single point]
O=C1C2C3C=CC(C4CC34)C2C(=O)N1c1cccc2ccccc12 (centres undefined) | -25 | 29.1 µM [falling, single point] | 
CC(C)c1ccc(S(=O)(=O)Nc2ccc(O)c(Sc3ncn[nH]3)c2)cc1 | -18.4 |  | 
Cc1c(Cl)c([N+](=O)[O-])nn1CC(=O)Nc1ccc2c(c1)OCO2 | -40.1 | 29.1 µM [falling, single point] | 4.61 µM [falling, single point]
CC(Oc1ccc2c(-c3ccccc3)cc(=O)oc2c1)C(=O)NCCCn1ccnc1 (centres undefined) | -1.16 |  | 
Cc1cc(C)c(NC(=O)COC(=O)C2CCC2)c(Cl)c1 | 15.1 | 0.0517 µM [rising, full curve, poor fit] | 0.00411 µM [rising, full curve, poor fit]
CCn1c(SCC(=O)OC)nc2sc3c(c2c1=O)CC(C)(C)OC3 | 10.5 |  | 
COc1cc(OC)cc(-c2c(-c3cccs3)c3cc(-c4ccc(SC)cc4)ccc3n2C)c1 | -24.1 | 0.92 µM [falling, partial curve, poor fit] | 
Cc1c(CCC(=O)NCCCn2ccnc2)c(=O)oc2cc3oc4c(c3cc12)CCCC4 | 9.66 | 29.1 µM [falling, single point] | 
Cc1cc(C(=O)NCC(C)(C)N2CCOCC2)c(C)o1 | -5.22 |  | 
c1cc(-c2ccncc2)ccn1 | 7.4 | 29.1 µM [rising, single point] | 
CC(=O)c1cccc(OCC(=O)Nc2ccccc2N2CCOCC2)c1 | -37 | 0.58 µM [rising, full curve] | 14.6 µM [falling, single point]
NC(=O)C1CC(=O)N(c2ccc(OCC(=O)NCc3ccccc3)cc2)C1 (centres undefined) | 11.7 |  | 
CCCOc1ccc(-c2nc(C#N)c(N3CCN(C)CC3)o2)cc1 | -0.329 | 0.461 µM [falling, single point] | 
CN1C(C(=O)Nc2ccc(OC(F)(F)F)cc2)=CC(c2cccs2)=NS1(=O)=O | 19.1 |  | 
O=C(c1cccc(S(=O)(=O)Nc2ccccc2Cl)c1)N1CCCCCC1 | 19.7 |  | 

Limited to cell number change [%], for some of the entries so far:
SMILES | cell number change [%]
O=C(CSc1nnc(NC(=O)c2ccc(F)cc2F)s1)NC1CCCC1 | 9.72
CC(=O)c1cccc(OCC(=O)Nc2ccccc2N2CCOCC2)c1 | -37

Carrying on:

SMILES | cell number change [%] | AC50 [1] | AC50 [2]
COc1ccccc1/C=C/C(=O)OCC(=O)c1c(N)n(C)c(=O)n(C)c1=O | 10.8 | 0.461 µM [rising, single point] | 
Cc1cc(NS(=O)(=O)c2ccc(NC(=S)NC(=O)c3ccc(Cl)cc3Cl)cc2)no1 | -4.1 | 0.164 µM [falling, full curve, poor fit] | 
COc1ccc2nc(Nc3nc(-c4cc5ccccc5oc4=O)cs3)sc2c1 | 18.1 |  | 
CC1Cc2nc(SCC(=O)N3CCOCC3)n(-c3ccccc3)c(=O)c2S1 (centres undefined) | 31.4 | 0.461 µM [falling, full curve] | 29.1 µM [rising, single point]
Cc1cc(OCC(=O)NCc2ccccn2)cc(C)c1Br | 38.4 | 11.6 µM [rising, partial curve] | 6.51 µM [rising, partial curve, poor fit]
CC1CCN(c2ccc(NC(=O)Cn3c(=O)oc4ccccc43)cc2)CC1 | -20.3 | 14.6 µM [falling, partial curve, poor fit] | 
CCOc1ccc(CCNC(=O)c2c(C)noc2C)cc1OCC | 13.9 | 29.1 µM [rising, single point] | 
O=C(Nc1ccc2[nH]c(=O)[nH]c2c1)C(F)(F)F | 13.2 | 6.51 µM [rising, partial curve, poor fit] | 
COc1ccccc1OCC(=O)n1cc(C(=O)c2cc(Cl)cc(Cl)c2O)cn1 | -6.19 | 2.06 µM [falling, partial curve, poor fit] | 
CC(C)Oc1cc(O)c2c(=O)c(-c3ccc(O)cc3)coc2c1 | -0.98 |  | 
CCOC(=O)N1CCN(C(=O)c2cccc(NC3=NC4CS(=O)(=O)CC4S3)c2)CC1 (centres undefined) | -12.2 | 29.1 µM [falling, single point] | 
O=C(c1cccc(Oc2ccc([N+](=O)[O-])cc2Cl)c1)N1CCCCC1 | 24.6 | 6.51 µM [rising, partial curve, poor fit] | 
O=C(C1COc2ccccc2O1)N1CCN(Cc2ccccc2)CC1 (centres undefined) | -4.01 |  | 
COc1ccc2c(CSc3nc4nc(C)cc(C)n4n3)cc(=O)oc2c1 | -2.35 | 2.06 µM [rising, partial curve] | 
O=C(NCc1ccccc1)Nc1cccn(Cc2ccccc2Cl)c1=O | -37.8 |  | 29.1 µM [falling, single point]
CCOC(=O)c1ccc(NC(=S)NC(=O)c2nn(CC)cc2Br)cc1 | 16.2 | 29.1 µM [rising, single point] | 
Cc1cccc(N2C(=O)/C(=C\c3ccc(OC(F)F)cc3)c3ccccc3C2=O)c1 | -12.4 | 11.6 µM [falling, single point] | 
O=C(c1ccc(S(=O)(=O)N2CCCC2)cc1)N1CCCCC1 |  | 6.51 µM [falling, single point] | 
COc1ccc(C(O)(C(=O)NNc2ccc(C)cc2)c2cccs2)cc1 (centres undefined) |  | 29.1 µM [falling, single point] | 
CCNc1c(NS(=O)(=O)c2ccc([N+](=O)[O-])cc2)c(=O)oc2ccccc12 | -7.14 | 6.51 µM [rising, single point] | 

From PubChem BioAssay AID2685 (National Center for Advancing Translational Sciences (NCATS), 2010)
